Results are given in words; binding and its absence hold for the method and conditions named. Binding seen in cells or lysates may run through a third protein. Here binding means that the protein was enriched with, or labelled near, the bait; the list need not be complete. A no says only that the protein was not detected with the bait.
Experiments:
Assay in all cases: affinity purification with mass spectrometry; GST-tagged baits on glutathione resin; soluble adult mouse forebrain extract in 50 mM HEPES pH 7.4, 100 mM NaCl, 2 mM EDTA, 1 % Triton X-100, 4 °C; Colloidal Blue-stained bands cut out, LC-MS/MS; only the target purified
[1] = biological target: GST-tagged E2 domain of APP (UniProt P05067)
[2] = biological target: GST-tagged E1 domain of APP (UniProt P05067)
[3] = biological target: GST-tagged SCN2B ectodomain (human) (UniProt O60939)

Sequences of proteins named here, by UniProt entry; tags and fusion partners are left off. A line that says so, or that is headed by a name, gives the form on record, which may keep a tag or linker. Residues count along the entry.
GST-tagged E1 domain of APP (P05067, residues 28-189): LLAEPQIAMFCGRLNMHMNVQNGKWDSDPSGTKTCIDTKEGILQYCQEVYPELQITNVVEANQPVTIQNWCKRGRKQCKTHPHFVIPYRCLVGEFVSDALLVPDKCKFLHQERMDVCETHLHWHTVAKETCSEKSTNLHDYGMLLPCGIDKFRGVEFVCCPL
GST-tagged E2 domain of APP (P05067, residues 374-565): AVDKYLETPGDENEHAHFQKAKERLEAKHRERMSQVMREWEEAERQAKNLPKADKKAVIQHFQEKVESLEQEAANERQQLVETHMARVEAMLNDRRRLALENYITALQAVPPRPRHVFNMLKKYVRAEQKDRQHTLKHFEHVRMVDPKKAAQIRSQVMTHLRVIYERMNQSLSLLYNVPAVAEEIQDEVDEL
UniProt O60939, residues 30-157: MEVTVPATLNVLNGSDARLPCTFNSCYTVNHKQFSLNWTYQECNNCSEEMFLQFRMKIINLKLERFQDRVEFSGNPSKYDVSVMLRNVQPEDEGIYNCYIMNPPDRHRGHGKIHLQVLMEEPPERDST
UniProt P46097: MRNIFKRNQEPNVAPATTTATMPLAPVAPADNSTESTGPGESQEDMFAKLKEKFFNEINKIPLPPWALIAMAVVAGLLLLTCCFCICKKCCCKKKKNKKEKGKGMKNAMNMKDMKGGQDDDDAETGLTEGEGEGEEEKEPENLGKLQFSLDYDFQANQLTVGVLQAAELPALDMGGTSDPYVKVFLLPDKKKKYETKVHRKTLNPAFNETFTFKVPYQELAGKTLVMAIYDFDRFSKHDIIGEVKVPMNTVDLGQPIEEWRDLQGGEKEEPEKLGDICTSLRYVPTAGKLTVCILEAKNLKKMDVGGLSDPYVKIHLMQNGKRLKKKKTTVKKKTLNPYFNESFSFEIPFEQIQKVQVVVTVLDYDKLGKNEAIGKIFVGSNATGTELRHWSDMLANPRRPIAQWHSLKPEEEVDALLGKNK
UniProt P46096: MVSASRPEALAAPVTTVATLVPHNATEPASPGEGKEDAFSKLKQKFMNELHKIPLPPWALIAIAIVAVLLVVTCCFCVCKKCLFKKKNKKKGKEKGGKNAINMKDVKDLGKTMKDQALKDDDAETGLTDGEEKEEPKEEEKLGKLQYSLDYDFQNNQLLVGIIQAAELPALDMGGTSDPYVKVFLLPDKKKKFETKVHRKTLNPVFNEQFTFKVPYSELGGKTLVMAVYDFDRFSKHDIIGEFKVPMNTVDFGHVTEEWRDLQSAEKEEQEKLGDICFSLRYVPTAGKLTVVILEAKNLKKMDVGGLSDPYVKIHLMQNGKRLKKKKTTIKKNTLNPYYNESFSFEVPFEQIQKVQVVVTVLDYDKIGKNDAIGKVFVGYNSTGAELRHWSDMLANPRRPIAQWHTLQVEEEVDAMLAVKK

Measured: binding

Synaptotagmin-2 (endogenous, adult mouse forebrain) (from UniProt P46097 1-422)
no binding: all assays above

Synaptotagmin-1 (endogenous, adult mouse forebrain) (from UniProt P46096 1-421)
no binding: all assays above

Source: paper PMC4511450
